Among the data in the supplement of paper PMC11150407 are cell viability values, retold here.

Molecules are shown by their SMILES. Out of some 3,000 compounds screened, about 45 (2%) showed an effect of 50% or more. Some of the results follow.

This assay has as its system MOLM1 and UCSD/AML1 (averaged). In words: cell viability relative to DMSO control (POC); higher = less growth inhibition. Conditions: 1 µM; 72 h. On the procedure: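 Primary viability screen in the 3q26 EVI1-high AML cell lines MOLM1 and UCSD/AML1, compounds at 1 uM for 72 h. ATP CellTiter-Glo read-out given as percent viable over DMSO control (POC), averaged over duplicates. This mapping covers the TimTec NDL-3000 natural derivative library, whose compounds are identified by TimTec catalogue codes (ST...).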
For `O=c1[nH]c(O)c(N=Nc2cccc([N+](=O)[O-])c2)c(=O)[nH]1`, the cell viability is 96.3%. The figure for `C/C=C1\C[N+]2(CC)CCC34c5cccc(O)c5NC3C(C=O)C1CC42` (configuration not stated) is 105%; for `COc1c(O)cc(C2C(C#N)=C(N)Oc3c2c(=O)oc2ccccc32)cc1[N+](=O)[O-]` (configuration not stated) it is 102%. In the case of `N#Cc1cc2ccc(O)cc2oc1=O` it was 95.3%; in that of `CN1C2CCC1CC(=O)C2`, 94.3%. As for `O=C1NC(=O)N(c2ccc3c(c2)OCO3)C(=O)/C1=C/c1ccc(N2CCCCC2)cc1`, the cell viability was 108%.

As for `COCCOC(=O)c1c(C)n(Cc2ccco2)c2ccc(O)cc12`, the cell viability was found to be 99.4%. For the compound `CC(C[N+]1(C)CCCCC1)OC(=O)CCCCC(=O)OC(C)C[N+]1(C)CCCCC1` (configuration not stated), the cell viability was 107%. As to `c1cnc2c(OCC3CCCN4CCCCC34)cccc2c1` (configuration not stated), the cell viability stood at 103%.

Turning to `COC(=O)C(CCCN=C(N)N[N+](=O)[O-])NC(=O)c1ccc(C)cc1` (configuration not stated), the cell viability was found to be 94.4%. Take `CC(=O)c1c(C)n(Cc2ccccc2Cl)c2ccc(O)cc12`: the cell viability worked out at 89.6%. With `O=C(Cc1ccccc1)OCC1CCCN2CCCCC12` (configuration not stated), the cell viability came to 99.6%. With `CCOC(=O)C1=C(N)Oc2c(c(=O)oc3ccccc23)C1c1ccc(Cl)c(Cl)c1` (configuration not stated), the cell viability turned out to be 37.7%. With `N#CC1=C(N)Oc2c(c(=O)oc3ccccc23)C1c1cccs1` (configuration not stated), the cell viability amounted to 97.3%. For `COc1cc(OC)c(OC)cc1C=O`, the cell viability was 103%.

For the compound `CCN(CC)CCNC(=O)c1c(O)c2ccccc2n(Cc2ccccc2)c1=O`, the cell viability is 93.9%. As to `O=C1CC2OCC=C3CN4CCC56c7cc([N+](=O)[O-])ccc7N1C5C2C3CC46` (configuration not stated), the cell viability amounted to 96.4%. On to `O.O.[Cl][Cu][Cl].c1cncc(C2CCCCN2)c1` (configuration not stated), for which the cell viability was 104%. For `C/C=C1\C[N+]2(CC)CCC34C(=C(C=O)[C@H]1CC32)Nc1ccccc14` (some centres not stated), the cell viability turned out to be 111%. `COCCOC(=O)c1c(C)n(Cc2ccc(C(C)(C)C)cc2)c2c1cc(O)c1ccccc12`: the cell viability amounted to 92.8%. As to `O=C1NC(=O)N(Cc2ccccc2)C(=O)/C1=C/c1ccc2c(c1)OCO2`, the cell viability was determined as 97%.

As to `CN(CC12CC3CC(CC(C3)C1)C2)C(=O)c1c[nH]c2ccccc12`, the cell viability came to 111%. For the compound `CCOc1ccc(C=C(C#N)C#N)cc1`, the cell viability is 91.8%. `COc1cc2c(cc1OC)-c1c(OC)c(OC)cc3c1C(C2)[N+](C)(C)CC3` (configuration not stated): the cell viability is 95.6%. For the compound `COCCOC(=O)c1c(C)n(Cc2ccccc2Cl)c2c1cc(O)c1ccccc12`, the cell viability amounted to 108%. Regarding `N#CC1=C(N)Oc2c(c(=O)oc3ccccc23)C1c1cccc(Br)c1` (configuration not stated), the cell viability worked out at 98%. Consider `C[N+]1(CCOCC2CCC[N+]3(C)CCCCC23)CCCC(c2ccccn2)C1` (configuration not stated), for which the cell viability amounted to 92.5%. Consider `O=C(O)Cc1cnc[nH]1`, for which the cell viability turned out to be 95.2%. For `C1CCC(OCC2CCCN3CCCCC23)CC1` (configuration not stated), the cell viability stood at 104%.

Consider `O=c1oc2ccccc2c(O)c1Cc1ccccc1`, for which the cell viability was 106%. Regarding `COC(=O)c1ccc(OC)c(OC)c1`, the cell viability was determined as 96.4%. For `C/C=C1\CN2CCC34c5ccccc5NC3C(CO)[C@H]1CC24` (some centres not stated), the cell viability was determined as 96.3%. With `O=C1NC(=O)C(=Cc2ccc(O)c(O)c2)C(=O)N1`, the cell viability came to 88.1%.

Regarding `NC1CCOC1=O` (configuration not stated), the cell viability was 99.6%. Turning to `N#CC1=C(N)Oc2c(c(=O)oc3ccccc23)C1c1ccccc1Br` (configuration not stated), the cell viability turned out to be 97.2%. On to `COC(=O)C1=C(N)Oc2c(c(=O)oc3ccccc23)C1c1cccc(C(F)(F)F)c1` (configuration not stated), for which the cell viability was 93.2%. For the compound `NCCc1ccc(OCc2ccccc2)c(OCc2ccccc2)c1`, the cell viability came out at 96%. As to `Cc1ccc2c(c1N)C(=O)c1ccccc1C2=O`, the cell viability turned out to be 79.9%. In the case of `Cc1ccccc1N1C(=O)NC(=O)/C(=C\c2ccc3c(c2)OCO3)C1=O` it was 97.2%. With `CCOC(=O)C1=C(N)Oc2c(c(=O)oc3ccccc23)C1c1ccc(F)cc1F` (configuration not stated), the cell viability was found to be 94.5%. As to `O=C(Cc1c(O)c2ccccc2oc1=O)c1ccc(F)cc1`, the cell viability was 91%.

As for `COc1ccc(C(=O)NC(Cc2cnc[nH]2)C(=O)O)cc1` (configuration not stated), the cell viability stood at 93.7%. Turning to `Clc1ccc2[nH]c3c(c2c1)CCNC3`, the cell viability came to 102%.

Take `COc1ccc(CC(C)NC(=O)C(=O)c2c[nH]c3ccccc23)cc1` (configuration not stated): the cell viability turned out to be 97.4%. As for `COc1cc(C=O)cc(OC)c1OC`, the cell viability amounted to 102%. For `COc1cccc(C=O)c1OC`, the cell viability turned out to be 104%. For `O=C1CCCC(=O)N1C1CCCN2CCCCC12` (configuration not stated), the cell viability was found to be 103%. On to `O=c1[nH]c(=O)n(-c2ccc(Br)cc2)c(O)c1/C=C1/C=Nc2ccccc21`, for which the cell viability is 97.3%.

`O.O.OCC1CCCN2CCCCC12.[Cl][Cu][Cl]` (configuration not stated): the cell viability is 110%.

With `Cc1c(C(=O)OC(C)(C)C)c2cc(O)c3ccccc3c2n1Cc1ccco1`, the cell viability came to 98.4%. The figure for `CCOC(=O)C1=C(N)Oc2c(c(=O)oc3ccccc23)C1c1cccc(Br)c1` (configuration not stated) is 103%; for `Nc1ccc2c(c1)C13CCN4CC5=CCOC6CC(=O)N2C1C6C5CC43` (configuration not stated) it is 101%; for `CCOC(=O)C1=C(N)Oc2c(c(=O)oc3ccccc23)C1c1c(F)cccc1Cl` (configuration not stated) it is 96.5%. The figure for `CCCC(=O)c1ccc2c(c1)OCO2` is 104%.

`COc1ccc2[nH]c3c(c2c1)CCNC3`: the cell viability is 104%. For the compound `COc1cccc(C(O)CNC(C)C)c1` (configuration not stated), the cell viability turned out to be 101%. As for `NCCC(=O)OCC1CCCN2CCCCC12` (configuration not stated), the cell viability is 109%.

Turning to `O=[N+]([O-])N1CCn2c3c(c4cc(C5CCCCC5)ccc42)CCCC31` (configuration not stated), the cell viability was 67.5%. On to `CCOC(=O)C1=C(N)Oc2c(c(=O)oc3ccccc23)C1c1ccc(Cl)cc1Cl` (configuration not stated), for which the cell viability was determined as 104%.

As to `CC(C)NCC(O)c1cccc(Cl)c1` (configuration not stated), the cell viability came to 91.6%.

Regarding `CN(N=O)C(=O)NC1OC(CO)C(O)C(O)C1O` (configuration not stated), the cell viability stood at 103%. Consider `O.O.O.O.O.O.O=[N+]([O-])O.O=[N+]([O-])O.OCC1CCCN2CCCCC12.[Co]` (configuration not stated), for which the cell viability worked out at 96.8%.

A word on the cell viability: it is a read-out of living cells in per cent, often relative to untreated cells.
